Data from doi:10.1101/2022.03.28.486104.
No constants are given. Whether binding was seen depends on the method and setting. In cells and extracts the contact can be indirect.

Protein sequences, listed by entry. Tags and fused reporters are not part of them. Residues count along the entry.
UniProt Q9NZQ7, residues 19-290: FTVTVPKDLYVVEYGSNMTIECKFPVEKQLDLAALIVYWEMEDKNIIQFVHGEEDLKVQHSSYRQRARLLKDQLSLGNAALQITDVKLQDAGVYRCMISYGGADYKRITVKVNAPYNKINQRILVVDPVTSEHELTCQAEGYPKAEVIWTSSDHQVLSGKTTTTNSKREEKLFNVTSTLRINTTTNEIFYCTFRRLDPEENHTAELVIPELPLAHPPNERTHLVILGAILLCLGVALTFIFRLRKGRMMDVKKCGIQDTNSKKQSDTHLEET
UniProt P42081, residues 24-329: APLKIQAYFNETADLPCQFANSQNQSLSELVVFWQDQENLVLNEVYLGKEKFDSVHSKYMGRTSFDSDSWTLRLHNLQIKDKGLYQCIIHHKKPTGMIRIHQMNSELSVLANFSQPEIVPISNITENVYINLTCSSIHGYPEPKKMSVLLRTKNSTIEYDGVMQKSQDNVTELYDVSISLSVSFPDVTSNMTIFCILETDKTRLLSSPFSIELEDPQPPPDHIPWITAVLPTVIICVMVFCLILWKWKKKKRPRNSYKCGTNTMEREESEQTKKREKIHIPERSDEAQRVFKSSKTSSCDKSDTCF

Target: PD-L1 C-terminally tagged with mCherry, in DG-75 B cells (human) (UniProt Q9NZQ7)
Assay: co-IP + cross-linking

**Q.** How did the binding turn out when “CD86 C-terminally tagged with GFP, in DG-75 B cells (from UniProt P42081 24-329) (ligand)” was run?
**A.** no binding
